For five molecules, binding results are on record in publication PMC5834214.

By UniProt entry, the sequences of proteins in these tests, tags left out.
UniProt P09992: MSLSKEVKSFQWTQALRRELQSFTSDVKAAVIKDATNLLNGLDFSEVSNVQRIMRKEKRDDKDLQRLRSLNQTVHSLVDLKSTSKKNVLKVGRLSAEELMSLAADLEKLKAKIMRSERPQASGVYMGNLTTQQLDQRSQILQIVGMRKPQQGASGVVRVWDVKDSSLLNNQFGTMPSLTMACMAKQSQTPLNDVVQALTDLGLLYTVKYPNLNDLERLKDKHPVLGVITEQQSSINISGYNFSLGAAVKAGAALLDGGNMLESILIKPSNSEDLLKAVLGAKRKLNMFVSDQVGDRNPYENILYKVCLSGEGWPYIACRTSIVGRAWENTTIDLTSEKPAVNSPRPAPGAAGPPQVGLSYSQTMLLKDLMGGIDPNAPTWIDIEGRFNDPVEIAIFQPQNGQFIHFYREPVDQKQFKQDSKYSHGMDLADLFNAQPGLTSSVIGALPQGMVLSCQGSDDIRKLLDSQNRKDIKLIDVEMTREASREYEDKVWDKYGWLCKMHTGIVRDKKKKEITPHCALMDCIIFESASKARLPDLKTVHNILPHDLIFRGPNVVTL

B1: Inhibitor-ĸB kinase ε (protein, UniProt Q14164 1-716)
chain: MQSTANYLWHTDDLLGQGATASVYKARNKKSGELVAVKVFNTTSYLRPREVQVREFEVLRKLNHQNIVKLFAVEETGGSRQKVLVMEYCSSGSLLSVLESPENAFGLPEDEFLVVLRCVVAGMNHLRENGIVHRDIKPGNIMRLVGEEGQSIYKLTDFGAARELDDDEKFVSVYGTEEYLHPDMYERAVLRKPQQKAFGVTVDLWSIGVTLYHAATGSLPFIPFGGPRRNKEIMYRITTEKPAGAIAGAQRRENGPLEWSYTLPITCQLSLGLQSQLVPILANILEVEQAKCWGFDQFFAETSDILQRVVVHVFSLSQAVLHHIYIHAHNTIAIFQEAVHKQTSVAPRHQEYLFEGHLCVLEPSVSAQHIAHTTASSPLTLFSTAIPKGLAFRDPALDVPKFVPKVDLQADYNTAKGVLGAGYQALRLARALLDGQELMFRGLHWVMEVLQATCRRTLEVARTSLLYLSSSLGTERFSSVAGTPEIQELKAAAELRSRLRTLAEVLSRCSQNITETQESLSSLNRELVKSRDQVHEDRSIQQIQCCLDKMNFIYKQFKKSRMRPGLGYNEEQIHKLDKVNFSHLAKRLLQVFQEECVQKYQASLVTHGKRMRVVHETRNHLRLVGCSVAACNTEAQGVQESLSKLLEELSHQLLQDRAKGAQASPPPIAPYPSPTRKDLLLHMQELCEGMKLLASDLLDNNRIIERLNRVPAPPDV
B2: Septin-7 (protein, UniProt Q16181 1-437)
chain: MSVSARSAAAEERSVNSSTMVAQQKNLEGYVGFANLPNQVYRKSVKRGFEFTLMVVGESGLGKSTLINSLFLTDLYSPEYPGPSHRIKKTVQVEQSKVLIKEGGVQLLLTIVDTPGFGDAVDNSNCWQPVIDYIDSKFEDYLNAESRVNRRQMPDNRVQCCLYFIAPSGHGLKPLDIEFMKRLHEKVNIIPLIAKADTLTPEECQQFKKQIMKEIQEHKIKIYEFPETDDEEENKLVKKIKDRLPLAVVGSNTIIEVNGKRVRGRQYPWGVAEVENGEHCDFTILRNMLIRTHMQDLKDVTNNVHYENYRSRKLAAVTYNGVDNNKNKGQLTKSPLAQMEEERREHVAKMKKMEMEMEQVFEMKVKEKVQKLKDSEAELQRRHEQMKKNLEAQHKELEEKRRQFEDEKANWEAQQRILEQQNSSRTLEKNKKKGKIF
B3: Septin-9 (protein, UniProt Q9UHD8 1-586)
chain: MKKSYSGGTRTSSGRLRRLGDSSGPALKRSFEVEEVETPNSTPPRRVQTPLLRATVASSTQKFQDLGVKNSEPSARHVDSLSQRSPKASLRRVELSGPKAAEPVSRRTELSIDISSKQVENAGAIGPSRFGLKRAEVLGHKTPEPAPRRTEITIVKPQESAHRRMEPPASKVPEVPTAPATDAAPKRVEIQMPKPAEAPTAPSPAQTLENSEPAPVSQLQSRLEPKPQPPVAEATPRSQEATEAAPSCVGDMADTPRDAGLKQAPASRNEKAPVDFGYVGIDSILEQMRRKAMKQGFEFNIMVVGQSGLGKSTLINTLFKSKISRKSVQPTSEERIPKTIEIKSITHDIEEKGVRMKLTVIDTPGFGDHINNENCWQPIMKFINDQYEKYLQEEVNINRKKRIPDTRVHCCLYFIPATGHSLRPLDIEFMKRLSKVVNIVPVIAKADTLTLEERVHFKQRITADLLSNGIDVYPQKEFDEDSEDRLVNEKFREMIPFAVVGSDHEYQVNGKRILGRKTKWGTIEVENTTHCEFAYLRDLLIRTHMQNIKDITSSIHFEAYRVKRLNEGSSAMANGMEEKEPEAPEM
B4: T-complex protein 1 subunit beta (protein, UniProt P78371 1-535)
chain: MASLSLAPVNIFKAGADEERAETARLTSFIGAIAIGDLVKSTLGPKGMDKILLSSGRDASLMVTNDGATILKNIGVDNPAAKVLVDMSRVQDDEVGDGTTSVTVLAAELLREAESLIAKKIHPQTIIAGWREATKAAREALLSSAVDHGSDEVKFRQDLMNIAGTTLSSKLLTHHKDHFTKLAVEAVLRLKGSGNLEAIHIIKKLGGSLADSYLDEGFLLDKKIGVNQPKRIENAKILIANTGMDTDKIKIFGSRVRVDSTAKVAEIEHAEKEKMKEKVERILKHGINCFINRQLIYNYPEQLFGAAGVMAIEHADFAGVERLALVTGGEIASTFDHPELVKLGSCKLIEEVMIGEDKLIHFSGVALGEACTIVLRGATQQILDEAERSLHDALCVLAQTVKDSRTVYGGGCSEMLMAHAVTQLANRTPGKEAVAMESYAKALRMLPTIIADNAGYDSADLVAQLRAAHSEGNTTAGLDMREGTIGDMAILGITESFQVKRQVLLSAAEAAEVILRVDNIIKAAPRKRVPDHHPC
B5: Putative helicase MOV-10 (protein, UniProt Q9HCE1 1-1003)
chain: MPSKFSCRQLREAGQCFESFLVVRGLDMETDRERLRTIYNRDFKISFGTPAPGFSSMLYGMKIANLAYVTKTRVRFFRLDRWADVRFPEKRRMKLGSDISKHHKSLLAKIFYDRAEYLHGKHGVDVEVQGPHEARDGQLLIRLDLNRKEVLTLRLRNGGTQSVTLTHLFPLCRTPQFAFYNEDQELPCPLGPGECYELHVHCKTSFVGYFPATVLWELLGPGESGSEGAGTFYIARFLAAVAHSPLAAQLKPMTPFKRTRITGNPVVTNRIEEGERPDRAKGYDLELSMALGTYYPPPRLRQLLPMLLQGTSIFTAPKEIAEIKAQLETALKWRNYEVKLRLLLHLEELQMEHDIRHYDLESVPMTWDPVDQNPRLLTLEVPGVTESRPSVLRGDHLFALLSSETHQEDPITYKGFVHKVELDRVKLSFSMSLLSRFVDGLTFKVNFTFNRQPLRVQHRALELTGRWLLWPMLFPVAPRDVPLLPSDVKLKLYDRSLESNPEQLQAMRHIVTGTTRPAPYIIFGPPGTGKTVTLVEAIKQVVKHLPKAHILACAPSNSGADLLCQRLRVHLPSSIYRLLAPSRDIRMVPEDIKPCCNWDAKKGEYVFPAKKKLQEYRVLITTLITAGRLVSAQFPIDHFTHIFIDEAGHCMEPESLVAIAGLMEVKETGDPGGQLVLAGDPRQLGPVLRSPLTQKHGLGYSLLERLLTYNSLYKKGPDGYDPQFITKLLRNYRSHPTILDIPNQLYYEGELQACADVVDRERFCRWAGLPRQGFPIIFHGVMGKDEREGNSPSFFNPEEAATVTSYLKLLLAPSSKKGKARLSPRSVGVISPYRKQVEKIRYCITKLDRELRGLDDIKDLKVGSVEEFQGQERSVILISTVRSSQSFVQLDLDFNLGFLKNPKRFNVAVTRAKALLIIVGNPLLLGHDPDWKVFLEFCKENGGYTGCPFPAKLDLQQGQNLLQGLSKLSPSTSGPHSHDYLPQEREGEGGLSLQVEPEWRNEL

These are yes or no findings as the source states them, for the method shown. In cells and extracts the contact can be indirect. Here binding means that the protein was enriched with, or labelled near, the bait; the list need not be complete. A no says only that the protein was not detected with the bait.

The test has as its target Strep-tagged nucleoprotein (NP) of lymphocytic choriomeningitis virus, encoded by rLCMV/Strep-NP (lymphocytic choriomeningitis virus (LCMV), clone 13) (UniProt P09992). Kind of test: affinity purification with mass spectrometry.
As to B1, the binding result is recorded as “no binding”.

Regarding B2, the binding entry is “binds”.

In the case of B3, the binding entry is recorded as “binds”.

For the molecule B4, the binding entry was “binds”.

In the case of B5, the binding entry is “binds”.
